Results from the supplement of paper PMC5949888.
Most values lie at the floor of the assay. Slopes are relative: functional sequences can read slightly below zero.

System: Saccharomyces cerevisiae PS128 hsf1 delta, HSF1(1-493) fusion
Experiment: growth estimate (transactivation domain function in HSF1 fusion, heat-shock survival) (a.u. (slope of normalised read count over time)); higher = stronger growth at 37°C, i.e. more transactivation activity
Conditions: library: random library

Substance | growth estimate
MRPSYR | < -0.25
MRQAFVYCLTSAGNSALRAH | < -0.25
MRQLGSLMDVSSG | < -0.25
MRQNDIRGPFVVRPVGIPYR | < -0.25
MRQTVCILDPPAVLSGEAQC | < -0.25
MRRDCVGDSGCVKLAVKSSV | < -0.25
MRRLVDPGKARKF | < -0.25
MRSASIALCDPSSVFLAQAS | < -0.25
MRSGLLRASQLVRTGSMEGH | < -0.25
MRVAHHA | < -0.25
MRVETSAYPYDARHNQAVAL | -0.25
MRWCP | < -0.25
MSCTAGERKGY | < -0.25
MSDIGVGFRYMVRFKVIGDR | < -0.25
MSDNARIGSPRA | < -0.25
MSDVRCDGSREMRAAI | < -0.25
MSFTVYW | < -0.25
MSGRAILCIQIGNMRVSIVI | < -0.25
MSGSVIWTRTQKFRHPRALI | < -0.25
MSGTTTAMSQYVTRQPFSSN | -0.243
MSITRETGVEIWLSRDLGHI | < -0.25
MSLHKEVRIAAAVSGTGPDH | < -0.25
MSLSVRSSRQIPVG | < -0.25
MSN | < -0.25
MSNWFDR | < -0.25

Quoted at random: 6 entries already listed
Substance | growth estimate
MSDIGVGFRYMVRFKVIGDR | < -0.25
MSFTVYW | < -0.25
MSCTAGERKGY | < -0.25
MSN | < -0.25
MRSGLLRASQLVRTGSMEGH | < -0.25
MSGRAILCIQIGNMRVSIVI | < -0.25

Remaining list, next part.

Substance | growth estimate
MSSFICGSSRAGVGDRIGYE | < -0.25
MSSHNTCPIGVYGSLLLLVT | < -0.25
MTAGSASTRLINGSNGRYPS | -0.245
MTDHWGRWPSHCTGTTLRAR | < -0.25
MTDREVWSNNRQNLQNNNKK | < -0.25
MTKWTLAAVPRLARDPIRWS | < -0.25
MTLNKYEFISQKHIISGFSR | < -0.25
MTLNLG | < -0.25
MTMRQLGIFRYA | < -0.25
MTPESVECPIVSPTDIAFFA | < -0.25
MTSRVSTRGNLATKG | < -0.25
MTVMRRRLTENGYSVERVSA | < -0.25
MTVTVELAEPIPGYGNSART | < -0.25
MVFCRLYRKLSVAVVIQRKT | < -0.25
MVHGILSVSGAL | < -0.25
MVPILLRGCQSGRDNCAELS | < -0.25
MVQGSKGYSLLYLAIVSGRG | < -0.25
MVRARCQRG | < -0.25
MVRLHEKRGCDGSQPN | < -0.25
MVVAVQNPER | < -0.25
MVWHVVVLDTHEHLASSDIS | < -0.25
MWFPPRNKPQAGDYRFRRIV | < -0.25
MWKDTSLGVVHYLEGIGSNG | < -0.25
MWRLFVSAKRFDGGELYTVR | < -0.25
MWRRAPPNPT | < -0.25

Substance | growth estimate
MWSITRA | < -0.25
MYNWDQLL | 0.855
MYQTGES | < -0.25
MYRPGAGHRQVILGIPIELV | < -0.25
MYRRQSFLKPG | < -0.25
MYTKPMSWDIFTTLSRLQGL | < -0.25
MYWYWRCNYRIWRVTTINVA | < -0.25
NAAWRPGKHDGILSGPVRPL | < -0.25
NAAYCSAQRPFDARYQWDEV | < -0.25
NAGRS | < -0.25
NAHGHKRQEGTSGLASNSTK | < -0.25
NAIDSEAGPRRLSG | < -0.25
NALELAWAPPTAMLAENGNT | < -0.25
NALLPKRVSLS | < -0.25
NAQEVNHAVFYGMPSAHRNG | < -0.25
NAV | < -0.25
NCACPVLG | < -0.25
NCEDGVT | -0.245
NCGVG | < -0.25
NCPLSCVN | < -0.25
NDL | < -0.25
NDLDIK | < -0.25
NDQPWHRK | < -0.25
NDSEGS | < -0.25
NDTVAENVVSVHTSRCLLFS | < -0.253

Substance | growth estimate
NDVSKEARGALCGQKGLGIS | < -0.25
NDYTSLDLTHMSGVCISFQS | < -0.25
NEASFAVRPGPV | < -0.25
NECAAYPVGYDFCTSLSIDA | < -0.25
NEGGRVREYLHGSASRFFV | < -0.25
NEGRPTRY | < -0.25
NEIH | < -0.25
NEKTHYPPTELASSVESATG | < -0.25
NELPGVTCLCPVPQSISAGH | < -0.25
NERGGRICGRHLEIAHLLEP | < -0.25
NESHRPPWM | < -0.25
NEVTSSYRCHLPAGHRCEEN | < -0.25
NEYDRRTSITHTWRVPPLVI | < -0.25
NFCGLTSLRYETVRHPI | < -0.25
NFDLAAVCARVHPKSGLCGV | < -0.25
NFKTWT | < -0.25
NFLGPVQFG | < -0.25
NFPDCRLIAIMRLSTVGGHS | < -0.25
NFPLYLLIVT | < -0.25
NFPVCPTLAPC | < -0.25
NFRFDLVFRATDDADVGAYV | < -0.25
NGEDADRLKAH | < -0.25
NGGAYGPVVDRHPWQGITSS | < -0.25
